From patent publication US6911429B2, “Compositions and methods for treating cellular response to injury and other proliferating cell disorders regulated by hyaladherin and hyaluronans” (Transition Therapeutics Inc., priority 1999, dated 2005)
No constants are given. Whether binding was seen depends on the method and setting. In cells and extracts the contact can be indirect. Some binding calls cover weakened binding; strength is not graded here. Where a sequence is shown, tags or fusion partners need not be part of it.

By UniProt entry, the sequences of proteins in these tests, tags left out. Residues count along the entry.
UniProt Q63844, residues 2-380: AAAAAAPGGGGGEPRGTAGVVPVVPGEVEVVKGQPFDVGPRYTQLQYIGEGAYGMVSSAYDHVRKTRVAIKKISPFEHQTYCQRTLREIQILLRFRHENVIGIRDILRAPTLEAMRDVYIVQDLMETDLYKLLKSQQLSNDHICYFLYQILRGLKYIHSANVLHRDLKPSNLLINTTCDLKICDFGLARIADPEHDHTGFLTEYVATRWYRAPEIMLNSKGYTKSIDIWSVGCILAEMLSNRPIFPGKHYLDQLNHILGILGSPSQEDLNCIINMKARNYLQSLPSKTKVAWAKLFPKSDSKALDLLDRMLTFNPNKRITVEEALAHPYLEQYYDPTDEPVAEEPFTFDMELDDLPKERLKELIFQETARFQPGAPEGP

How the values were obtained:
[1] = target: erk1 kinase (cellular, in 10T1/2 and transfected cell lines) (UniProt Q63844); test: in vivo co-immunoprecipitation (figure legend)
[2] = target: erk1 kinase (cellular, in 10T1/2 and transfected cell lines) (UniProt Q63844); test: co-immunoprecipitation from cell lysates, western blot
[3] = target: erk1 kinase (cellular, in 10T1/2 and transfected cell lines) (UniProt Q63844); test: in vivo co-immunoprecipitation

Measured: binding

B1: RHAMM v5 (95 kDa full length murine RHAMM) (receptor, UniProt Q00547 1-794, looked up)
chain: MSFPKAPLKRFNDPSGCAPSPGAYDVKTSEATKGPVSFQKSQRFKNQRESQQNLNIDKDTTLLASAKKAKKSVSKKDSQKNDKDVKRLEKEIRALLQERGTQDKRIQDMESELEKTEAKLNAAVREKTSLSASNASLEKRLTELTRANELLKAKFSEDGHQKNMRALSLELMKLRNKRETKMRSMMVKQEGMELKLQATQKDLTESKGKIVQLEGKLVSIEKEKIDEKCETEKLLEYIQEISCASDQVEKCKVDIAQLEEDLKEKDREILSLKQSLEENITFSKQIEDLTVKCQLLETERDNLVSKDRERAETLSAEMQILTERLALERQEYEKLQQKELQSQSLLQQEKELSARLQQQLCSFQEEMTSEKNVFKEELKLALAELDAVQQKEEQSERLVKQLEEETKSTAEQLTRLDNLLREKEVELEKHIAAHAQAILIAQEKYNDTAQSLRDVTAQLESVQEKYNDTAQSLRDVTAQLESEQEKYNDTAQSLRDVTAQLESEQEKYNDTAQSLRDVTAQLESVQEKYNDTAQSLRDVTAQLESYKSSTLKEIEDLKLENLTLQEKVAMAEKSVEDVQQQILTAESTNQEYARMVQDLQNRSTLKEEEIKEITSSFLEKITDLKNQLRQQDEDFRKQLEEKGKRTAEKENVMTELTMEINKWRLLYEELYEKTKPFQQQLDAFEAEKQALLNEHGATQEQLNKIRDSYAQLLGHQNLKQKIKHVVKLKDENSQLKSEVSKLRSQLVKRKQNELRLQGELDKALGIRHFDPSKAFCHASKENFTPLKEGNPNCC
binds: all assays above
